# Data as given in PubChem BioAssay AID1259280 (Sanger Institute, 2017).
# Purpose: 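Kinome siRNA screen for partners that synergise with BYL719, cetuximab or trametinib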 (primary screen)
# Cells: human SNU407 colorectal cancer cells
# Knock-down reagent: siRNA pool against human genes
# Treatment: anchor drugs BYL719 at 1 µM, cetuximab at 5 µg/ml or trametinib at 10 nM, or DMSO vehicle alone; exposure time not given
# Measurement: 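Viability per well scaled to a non-targeting pool and averaged over replicates, with a robust z-score from controls and a synergy score per anchor drug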
# Scale: viability z-score, no drug and viability vs control, no drug: higher = more cells survive the knock-down; synergy with trametinib and synergy with BYL719 and synergy with cetuximab: higher = stronger synergy of knock-down with drug
# Rule for the call: 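Essential calls require a no-drug robust viability z-score under -3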
# Calls: active = essential (knock-down alone kills cells); inactive = no change without drug
# The whole screen tested 794 reagents; shown is an unselected part. 12 of them (1.5%) count as active. 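Calls cover knock-down without drug only; synergy scores stand apart, values above 0.15 being treated as synergy.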 No viability above 1 is reported: the scale is capped. Reagent sequences are not shown. Not given: the amount of reagent, the time to read-out.
Gene,"viability z-score, no drug","viability vs control, no drug (fraction of control)",synergy with trametinib,synergy with BYL719,synergy with cetuximab,Call
MAP3K21 (mitogen-activated protein kinase kinase kinase 21),-0.0242,0.929,-0.108,-0.0121,-0.0863,inactive
PIP5K1C (phosphatidylinositol-4-phosphate 5-kinase type 1 gamma),0.364,0.959,-0.0229,-0.0569,-0.0815,inactive
NR2F2 (nuclear receptor subfamily 2 group F member 2),-1.26,0.835,-0.0639,-0.0773,-0.0489,inactive
EIF2AK1 (eukaryotic translation initiation factor 2 alpha kinase 1),0.0189,0.933,-0.106,0.11,-0.0288,inactive
HSPB8 (heat shock protein family B (small) member 8),0.721,0.986,0.0856,0.0736,-0.0283,inactive
WNK3 (WNK lysine deficient protein kinase 3),0.71,0.985,-0.00945,0.0197,-0.00808,inactive
MARK3 (microtubule affinity regulating kinase 3),0.0142,0.932,-0.0455,0.0434,-0.00741,inactive
RAD21 (RAD21 cohesin complex component),-2.35,0.752,-0.0186,0.131,-0.089,inactive
SGK3 (serum/glucocorticoid regulated kinase family member 3),0.901,1,-0.0823,0.00752,-0.024,inactive
EFNA5 (ephrin A5),0.901,1,-0.0114,-0.119,-0.0532,inactive
DCLK2 (doublecortin like kinase 2),-0.47,0.895,0.0471,0.128,0.0726,inactive
TEK (TEK receptor tyrosine kinase),-0.685,0.879,0.0306,-0.093,-0.0126,inactive
MAK (male germ cell associated kinase),-0.152,0.92,-0.089,0.00513,0.0209,inactive
GRK5 (G protein-coupled receptor kinase 5),0.026,0.933,0.019,-0.0246,-0.0266,inactive
"HCK (HCK proto-oncogene, Src family tyrosine kinase)",0.102,0.939,-0.0568,-0.0531,0.0651,inactive
PRKCQ (protein kinase C theta),0.901,1,0.0859,0.0803,0.0378,inactive
PANK1 (pantothenate kinase 1),0.865,0.997,-0.068,-0.0116,0.0986,inactive
PDGFRB (platelet derived growth factor receptor beta),-0.341,0.905,0.0767,0.0484,-0.000824,inactive

3 entries already listed, ordered by “synergy with trametinib”, ascending:
Gene,"viability z-score, no drug","viability vs control, no drug (fraction of control)",synergy with trametinib,synergy with BYL719,synergy with cetuximab,Call
MAK (male germ cell associated kinase),-0.152,0.92,-0.089,0.00513,0.0209,inactive
"HCK (HCK proto-oncogene, Src family tyrosine kinase)",0.102,0.939,-0.0568,-0.0531,0.0651,inactive
GRK5 (G protein-coupled receptor kinase 5),0.026,0.933,0.019,-0.0246,-0.0266,inactive

The listing continues.
Gene,"viability z-score, no drug","viability vs control, no drug (fraction of control)",synergy with trametinib,synergy with BYL719,synergy with cetuximab,Call
LRRK1 (leucine rich repeat kinase 1),0.901,1,0.103,-0.0408,-0.0461,inactive
CALM2 (calmodulin 2),-0.566,0.888,0.0868,0.0278,-0.0253,inactive
IPPK (inositol-pentakisphosphate 2-kinase),-0.783,0.871,-0.0202,-0.0234,-0.0528,inactive
ERN1 (endoplasmic reticulum to nucleus signaling 1),-0.227,0.914,-0.0131,0.0128,-0.00249,inactive
NME5 (NME/NM23 family member 5),0.819,0.994,-0.074,-0.0169,-0.0943,inactive
"FES (FES proto-oncogene, tyrosine kinase)",-1.13,0.845,0.0557,0.0458,-0.00535,inactive
PIK3R3 (phosphoinositide-3-kinase regulatory subunit 3),-0.0247,0.929,-0.0628,-0.103,-0.103,inactive
CLK1 (CDC like kinase 1),0.901,1,-0.0139,-0.11,-0.0166,inactive
CDK17 (cyclin dependent kinase 17),0.425,0.964,-0.00341,-0.0371,0.0865,inactive
MAP2K1 (mitogen-activated protein kinase kinase 1),0.782,0.991,-0.033,-0.028,0.00125,inactive
MKNK2 (MAPK interacting serine/threonine kinase 2),-0.517,0.892,-0.0294,-0.0104,0.00441,inactive
GNAS (GNAS complex locus),-1.6,0.809,-0.101,-0.027,-0.00352,inactive
"ABL1 (ABL proto-oncogene 1, non-receptor tyrosine kinase)",0.276,0.952,0.0237,0.0511,0.0142,inactive
MED24 (mediator complex subunit 24),0.812,0.993,-0.0412,0.0189,0.0706,inactive
NUCKS1,0.291,0.953,-0.00818,0.00795,0.00759,inactive
ACVR1 (activin A receptor type 1),0.901,1,-0.00958,0.00246,-0.0477,inactive
